From the supplement of paper PMC12823440, “Inhibitors supercharge kinase turnover through native proteolytic circuits” (Nature, 2025)
Where a name gives a salt, the structure may show the parent alone. The list shows a part of the results. Hit calls seldom repeat between salt and free forms of one compound.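 Kinases were expressed as nanoluciferase fusions in K562 cells and luminescence was read every 4 h between 2 and 18 h as percent of control, DMSO set to 100% and a positive control to 0%. A time point counts as decreased when the signal drops significantly (2 sigma). The hit call is the authors' own, does not follow from the count of time points alone, and its rule is not shown.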

Sequences of proteins named here, by UniProt entry; tags and fusion partners are left off. A change or cut given only in a name is not applied to a line headed by its entry.
UniProt Q16288, whole entry, looked up: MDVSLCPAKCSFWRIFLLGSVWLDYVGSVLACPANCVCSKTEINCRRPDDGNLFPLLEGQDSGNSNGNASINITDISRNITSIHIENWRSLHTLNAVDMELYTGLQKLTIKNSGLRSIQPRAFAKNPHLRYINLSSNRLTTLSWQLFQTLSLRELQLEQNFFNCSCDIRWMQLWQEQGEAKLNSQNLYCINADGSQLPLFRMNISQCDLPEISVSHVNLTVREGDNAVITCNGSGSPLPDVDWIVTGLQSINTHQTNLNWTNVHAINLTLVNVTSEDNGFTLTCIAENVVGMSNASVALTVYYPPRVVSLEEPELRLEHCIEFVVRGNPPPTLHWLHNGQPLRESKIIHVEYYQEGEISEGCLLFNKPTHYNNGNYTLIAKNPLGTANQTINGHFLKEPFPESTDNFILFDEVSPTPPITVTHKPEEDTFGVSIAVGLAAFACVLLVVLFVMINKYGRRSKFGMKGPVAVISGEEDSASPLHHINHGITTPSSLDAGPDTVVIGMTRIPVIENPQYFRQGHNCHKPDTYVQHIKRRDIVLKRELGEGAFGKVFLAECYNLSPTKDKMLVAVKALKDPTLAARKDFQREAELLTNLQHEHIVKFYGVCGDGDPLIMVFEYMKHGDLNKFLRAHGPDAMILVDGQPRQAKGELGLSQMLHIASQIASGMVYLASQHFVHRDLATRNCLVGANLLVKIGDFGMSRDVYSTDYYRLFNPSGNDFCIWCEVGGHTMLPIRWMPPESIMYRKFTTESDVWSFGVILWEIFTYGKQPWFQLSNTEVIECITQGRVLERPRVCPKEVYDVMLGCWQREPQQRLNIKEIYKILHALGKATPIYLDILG
UniProt O15530: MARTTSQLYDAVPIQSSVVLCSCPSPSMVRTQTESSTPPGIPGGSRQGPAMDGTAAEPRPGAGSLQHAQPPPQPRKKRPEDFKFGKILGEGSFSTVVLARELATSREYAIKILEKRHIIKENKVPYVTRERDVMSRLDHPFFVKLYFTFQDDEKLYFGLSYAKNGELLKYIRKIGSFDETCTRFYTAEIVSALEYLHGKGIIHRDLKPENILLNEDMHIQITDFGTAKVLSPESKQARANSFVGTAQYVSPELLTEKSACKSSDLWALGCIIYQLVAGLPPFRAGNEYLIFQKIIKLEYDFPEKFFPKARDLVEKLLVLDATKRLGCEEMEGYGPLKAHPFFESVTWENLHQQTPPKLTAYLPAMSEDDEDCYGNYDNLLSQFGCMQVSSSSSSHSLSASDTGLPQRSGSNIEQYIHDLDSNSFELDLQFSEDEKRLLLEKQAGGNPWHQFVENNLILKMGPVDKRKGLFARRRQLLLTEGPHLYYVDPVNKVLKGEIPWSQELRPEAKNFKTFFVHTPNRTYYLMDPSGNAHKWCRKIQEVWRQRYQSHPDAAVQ
UniProt P42356, whole entry, looked up: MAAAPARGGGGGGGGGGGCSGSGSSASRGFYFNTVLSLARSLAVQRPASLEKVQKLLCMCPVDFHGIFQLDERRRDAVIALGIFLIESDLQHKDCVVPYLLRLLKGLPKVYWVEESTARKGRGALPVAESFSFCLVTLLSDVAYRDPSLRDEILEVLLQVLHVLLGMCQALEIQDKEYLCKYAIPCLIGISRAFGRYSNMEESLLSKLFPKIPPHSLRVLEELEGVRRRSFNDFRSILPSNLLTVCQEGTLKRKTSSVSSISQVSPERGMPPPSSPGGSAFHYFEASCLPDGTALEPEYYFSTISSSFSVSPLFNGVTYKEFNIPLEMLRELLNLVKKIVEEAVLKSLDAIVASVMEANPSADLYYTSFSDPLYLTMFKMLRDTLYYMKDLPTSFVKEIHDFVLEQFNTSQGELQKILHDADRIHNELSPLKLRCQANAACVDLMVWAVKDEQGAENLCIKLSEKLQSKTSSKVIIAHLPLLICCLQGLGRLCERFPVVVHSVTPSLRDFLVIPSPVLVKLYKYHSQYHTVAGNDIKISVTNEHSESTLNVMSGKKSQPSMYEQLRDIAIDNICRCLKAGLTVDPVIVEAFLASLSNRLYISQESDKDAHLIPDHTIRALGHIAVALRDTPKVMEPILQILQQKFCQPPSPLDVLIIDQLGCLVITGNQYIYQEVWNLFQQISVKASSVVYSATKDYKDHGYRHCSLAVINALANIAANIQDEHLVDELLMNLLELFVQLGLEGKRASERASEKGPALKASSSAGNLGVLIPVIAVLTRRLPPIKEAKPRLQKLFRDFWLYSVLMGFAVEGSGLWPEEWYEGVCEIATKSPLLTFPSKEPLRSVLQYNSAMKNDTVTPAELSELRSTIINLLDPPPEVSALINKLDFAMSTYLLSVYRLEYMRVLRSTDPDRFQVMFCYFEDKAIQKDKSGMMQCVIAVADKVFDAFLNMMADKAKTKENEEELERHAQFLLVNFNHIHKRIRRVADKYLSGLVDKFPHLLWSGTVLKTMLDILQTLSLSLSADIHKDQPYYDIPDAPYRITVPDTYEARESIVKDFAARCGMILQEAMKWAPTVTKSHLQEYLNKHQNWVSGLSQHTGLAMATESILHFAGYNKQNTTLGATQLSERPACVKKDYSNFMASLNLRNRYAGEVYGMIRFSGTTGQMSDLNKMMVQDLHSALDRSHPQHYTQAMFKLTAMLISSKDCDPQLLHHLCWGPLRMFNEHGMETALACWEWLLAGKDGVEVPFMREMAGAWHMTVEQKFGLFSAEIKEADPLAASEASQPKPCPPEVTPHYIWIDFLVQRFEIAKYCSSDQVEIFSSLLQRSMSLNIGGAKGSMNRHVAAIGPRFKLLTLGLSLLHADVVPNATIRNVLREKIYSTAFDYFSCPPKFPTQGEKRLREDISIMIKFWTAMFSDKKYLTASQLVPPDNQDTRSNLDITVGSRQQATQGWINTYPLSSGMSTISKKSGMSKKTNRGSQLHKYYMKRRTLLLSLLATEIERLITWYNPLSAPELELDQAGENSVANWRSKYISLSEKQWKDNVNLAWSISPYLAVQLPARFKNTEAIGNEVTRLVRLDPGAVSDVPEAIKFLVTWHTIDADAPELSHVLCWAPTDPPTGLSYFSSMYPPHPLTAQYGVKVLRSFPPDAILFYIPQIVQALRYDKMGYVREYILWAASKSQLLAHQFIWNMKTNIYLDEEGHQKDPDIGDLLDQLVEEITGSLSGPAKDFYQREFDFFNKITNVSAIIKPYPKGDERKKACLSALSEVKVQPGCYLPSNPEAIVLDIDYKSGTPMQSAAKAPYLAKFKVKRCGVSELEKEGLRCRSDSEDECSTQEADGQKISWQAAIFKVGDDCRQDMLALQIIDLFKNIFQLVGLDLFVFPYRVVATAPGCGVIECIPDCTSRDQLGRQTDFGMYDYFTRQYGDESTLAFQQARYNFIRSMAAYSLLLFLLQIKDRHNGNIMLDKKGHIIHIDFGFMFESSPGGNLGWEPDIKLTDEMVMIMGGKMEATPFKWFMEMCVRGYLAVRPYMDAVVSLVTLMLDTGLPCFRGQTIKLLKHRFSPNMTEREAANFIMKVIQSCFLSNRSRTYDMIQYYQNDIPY
UniProt Q13131: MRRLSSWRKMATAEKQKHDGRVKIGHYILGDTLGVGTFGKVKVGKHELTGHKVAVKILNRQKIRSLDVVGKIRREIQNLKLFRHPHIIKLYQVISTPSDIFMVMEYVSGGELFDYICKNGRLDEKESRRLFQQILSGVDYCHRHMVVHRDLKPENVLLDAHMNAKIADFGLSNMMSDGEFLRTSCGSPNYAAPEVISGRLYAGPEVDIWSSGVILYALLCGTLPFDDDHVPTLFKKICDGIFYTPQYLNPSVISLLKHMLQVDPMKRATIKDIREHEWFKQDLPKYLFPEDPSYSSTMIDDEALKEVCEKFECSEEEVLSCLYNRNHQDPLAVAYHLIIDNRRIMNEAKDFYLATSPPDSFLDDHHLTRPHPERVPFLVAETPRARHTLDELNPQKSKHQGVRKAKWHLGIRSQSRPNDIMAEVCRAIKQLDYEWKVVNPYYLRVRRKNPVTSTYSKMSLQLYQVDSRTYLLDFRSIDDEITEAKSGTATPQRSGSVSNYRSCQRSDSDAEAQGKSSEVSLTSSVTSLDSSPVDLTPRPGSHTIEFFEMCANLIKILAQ
UniProt P07949, whole entry, looked up: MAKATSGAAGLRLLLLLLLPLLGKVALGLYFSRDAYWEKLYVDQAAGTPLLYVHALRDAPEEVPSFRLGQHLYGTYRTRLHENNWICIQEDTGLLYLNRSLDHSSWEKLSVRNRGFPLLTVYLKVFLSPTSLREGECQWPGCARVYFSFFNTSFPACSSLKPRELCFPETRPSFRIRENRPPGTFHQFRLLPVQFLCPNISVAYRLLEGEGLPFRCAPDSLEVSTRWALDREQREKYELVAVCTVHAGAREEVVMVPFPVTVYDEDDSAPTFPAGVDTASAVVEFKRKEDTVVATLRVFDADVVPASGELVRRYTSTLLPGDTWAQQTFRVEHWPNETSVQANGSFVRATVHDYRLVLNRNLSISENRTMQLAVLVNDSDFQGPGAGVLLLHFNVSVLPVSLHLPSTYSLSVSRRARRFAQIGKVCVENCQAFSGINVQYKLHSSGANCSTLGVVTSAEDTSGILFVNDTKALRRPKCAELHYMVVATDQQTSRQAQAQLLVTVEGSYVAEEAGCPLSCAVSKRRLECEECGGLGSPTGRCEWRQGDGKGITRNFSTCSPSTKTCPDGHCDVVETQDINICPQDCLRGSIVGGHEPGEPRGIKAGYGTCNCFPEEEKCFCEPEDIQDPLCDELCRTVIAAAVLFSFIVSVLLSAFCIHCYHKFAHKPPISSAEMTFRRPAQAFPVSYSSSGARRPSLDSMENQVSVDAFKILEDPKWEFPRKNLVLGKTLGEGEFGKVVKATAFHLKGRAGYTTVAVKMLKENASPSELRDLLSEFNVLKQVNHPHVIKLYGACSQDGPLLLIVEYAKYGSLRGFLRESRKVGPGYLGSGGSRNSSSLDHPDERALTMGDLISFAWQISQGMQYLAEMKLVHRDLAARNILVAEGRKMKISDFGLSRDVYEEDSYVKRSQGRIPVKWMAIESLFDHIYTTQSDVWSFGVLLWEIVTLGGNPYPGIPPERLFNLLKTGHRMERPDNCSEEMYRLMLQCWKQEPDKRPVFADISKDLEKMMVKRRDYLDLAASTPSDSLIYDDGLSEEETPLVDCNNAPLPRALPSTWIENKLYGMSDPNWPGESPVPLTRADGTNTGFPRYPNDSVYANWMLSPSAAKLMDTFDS
UniProt P07949, whole entry M918T, looked up: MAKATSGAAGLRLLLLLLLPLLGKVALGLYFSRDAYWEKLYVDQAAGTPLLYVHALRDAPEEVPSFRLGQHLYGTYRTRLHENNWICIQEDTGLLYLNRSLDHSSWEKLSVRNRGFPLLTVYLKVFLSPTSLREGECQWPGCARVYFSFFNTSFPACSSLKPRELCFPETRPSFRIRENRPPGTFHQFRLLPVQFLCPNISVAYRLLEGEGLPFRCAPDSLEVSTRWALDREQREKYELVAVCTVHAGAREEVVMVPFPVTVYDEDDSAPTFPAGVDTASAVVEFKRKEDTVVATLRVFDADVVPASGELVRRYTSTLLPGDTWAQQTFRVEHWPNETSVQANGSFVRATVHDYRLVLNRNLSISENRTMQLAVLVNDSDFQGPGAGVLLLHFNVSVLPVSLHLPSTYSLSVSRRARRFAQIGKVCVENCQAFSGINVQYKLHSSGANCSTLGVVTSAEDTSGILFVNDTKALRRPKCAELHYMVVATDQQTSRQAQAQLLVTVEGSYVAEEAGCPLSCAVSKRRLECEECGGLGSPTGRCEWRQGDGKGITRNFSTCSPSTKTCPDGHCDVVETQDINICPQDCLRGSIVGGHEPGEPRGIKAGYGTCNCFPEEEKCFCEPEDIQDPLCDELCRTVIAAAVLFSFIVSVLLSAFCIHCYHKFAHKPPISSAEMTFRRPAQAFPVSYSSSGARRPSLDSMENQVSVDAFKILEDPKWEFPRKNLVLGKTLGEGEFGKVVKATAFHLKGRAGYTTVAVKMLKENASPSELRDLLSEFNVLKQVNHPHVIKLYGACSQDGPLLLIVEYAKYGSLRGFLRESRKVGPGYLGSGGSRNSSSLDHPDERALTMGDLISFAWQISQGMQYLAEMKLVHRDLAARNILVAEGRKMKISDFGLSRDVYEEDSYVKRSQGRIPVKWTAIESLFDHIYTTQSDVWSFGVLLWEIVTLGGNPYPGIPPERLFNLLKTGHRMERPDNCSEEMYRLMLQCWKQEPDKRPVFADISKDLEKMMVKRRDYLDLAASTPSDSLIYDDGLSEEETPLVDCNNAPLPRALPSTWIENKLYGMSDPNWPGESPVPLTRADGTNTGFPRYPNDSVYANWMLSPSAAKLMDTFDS

How the values were obtained:
Assay in all cases: number of time points (of 5) at which kinase-Nluc abundance scored as decreased, DMSO-normalised (count); higher = more persistent destabilization
Details in all cases: K562; 2-18 h
[1] = biological target: NTRK3 (UniProt Q16288)
[2] = biological target: PAK4 (UniProt O96013)
[3] = biological target: PBK (UniProt Q96KB5)
[4] = biological target: PDGFRB (UniProt P09619)
[5] = biological target: PDK1 (UniProt Q15118)
[6] = biological target: PDPK1 (UniProt O15530)
[7] = biological target: PIK4CA (UniProt P42356)
[8] = biological target: PIK4CB (UniProt Q9UBF8)
[9] = biological target: PLK1 (UniProt P53350)
[10] = biological target: PRKAA1 (UniProt Q13131)
[11] = biological target: PRKCA (UniProt P17252)
[12] = biological target: PTK2 (UniProt Q05397)
[13] = biological target: PTK2B (UniProt Q14289)
[14] = biological target: RAF1 (UniProt P04049)
[15] = biological target: RAF1_S257L (clone: RAF1_mut) (UniProt P04049)
[16] = biological target: RET (UniProt P07949)
[17] = biological target: RET_M918T (clone: RET_mut) (UniProt P07949)
[18] = biological target: RIOK1 (UniProt Q9BRS2)
[19] = biological target: RIPK1 (UniProt Q13546)
[20] = biological target: RIPK2 (UniProt O43353)

Row | Compound | number of time points [1] | number of time points [2] | number of time points [3] | number of time points [4] | number of time points [5] | number of time points [6] | number of time points [7] | number of time points [8] | number of time points [9] | number of time points [10] | number of time points [11] | number of time points [12] | number of time points [13] | number of time points [14] | number of time points [15] | number of time points [16] | number of time points [17] | number of time points [18] | number of time points [19] | number of time points [20]
1 | O=C1c2cccc(O)c2C(=O)c2c(O)cccc21 [Danthron] (10 µM) | 0 | 0 | 0 | 0 | 0 | 0 | 0 | 0 | 0 | 0 | 0 | 0 | 0 | 0 | 0 | 0 | 0 | 0 | 0 | 0
2 | CC(C)Cn1cc(C#N)c2cc(Oc3ccc(NC(=O)[C@@H]4CCCN4)cc3)ccc21 (10 µM) | 0 | 0 | 0 | 0 | 0 | 0 | 0 | 0 | 0 | 0 | 0 | 0 | 0 | 0 | 0 | 0 | 0 | 0 | 0 | 0
3 | C[C@]1(O)C[C@@](N)(c2ccc(-c3nc4n(c3-c3ccccc3)COc3ccncc3-4)cc2)C1 [TAS-117 (hydrochloride)] (10 µM) | 0 | 0 | 0 | 0 | 0 | 0 | 0 | 0 | 0 | 0 | 0 | 0 | 0 | 0 | 0 | 0 | 0 | 0 | 0 | 0
4 | C=CCN(/C=C1/C(=O)O[C@H](COC)[C@@]2(C)C1=C(O)C(=O)C1=C2[C@H](OC(C)=O)C[C@]2(C)C(=O)CC[C@@H]12)CC=C [Sonolisib] (2.5 µM) | 0 | 0 | 0 | 0 | 0 | 0 | 0 | 0 | 0 | 0 | 0 | 2 | 0 | 0 | 0 | 0 | 0 | 0 | 0 | 0
5 | CCc1ccc(NC(=O)Nc2ccccc2)cc1 (10 µM) | 0 | 0 | 0 | 0 | 0 | 0 | 0 | 0 | 0 | 0 | 0 | 0 | 0 | 0 | 0 | 0 | 0 | 0 | 0 | 0
6 | O=C(Nc1nc2cccc(-c3ccc(CN4CCS(=O)(=O)CC4)cc3)n2n1)C1CC1 [Filgotinib] (2.5 µM) | 0 | 0 | 0 | 0 | 0 | 0 | 0 | 0 | 0 | 0 | 0 | 0 | 0 | 0 | 0 | 0 | 0 | 0 | 0 | 0
7 | O=c1cc(-c2ccc(O)cc2)oc2cc(O)c([C@@H]3O[C@H](CO)[C@@H](O)[C@H](O)[C@H]3O)c(O)c12 [Isovitexin] (10 µM) | 0 | 0 | 0 | 0 | 0 | 0 | 0 | 0 | 0 | 0 | 0 | 0 | 0 | 0 | 0 | 0 | 0 | 0 | 0 | 0
8 | C=CC(=O)Nc1cc(C(=O)NC)cc(-c2n[nH]c3ccccc23)c1 (10 µM) | 0 | 0 | 0 | 0 | 0 | 0 | 0 | 0 | 0 | 1 | 0 | 2 | 0 | 0 | 1 | 0 | 0 | 1 | 3 | 3
9 | CCc1nc(C(N)=O)c(Nc2ccc(N3CCC(N4CCN(C)CC4)CC3)c(OC)c2)nc1NC1CCC(OC)CC1 (stereo not given) [EML4-ALK kinase inhibitor 1] (2.5 µM) | 0 | 0 | 0 | 0 | 0 | 0 | 0 | 0 | 0 | 0 | 0 | 0 | 0 | 0 | 0 | 0 | 0 | 0 | 0 | 0
10 | CC(C)(O)c1cc2nc(-c3cnc(N)nc3)nc(N3CCOCC3)c2s1 (2.5 µM) | 2 | 0 | 0 | 0 | 0 | 4 | 2 | 2 | 3 | 1 | 0 | 2 | 0 | 3 | 2 | 0 | 2 | 0 | 3 | 3
11 | Cc1cccc(Cn2nc(C)c3c(NC(=O)c4csc5c(N)ncnc45)cccc32)n1 (10 µM) | 0 | 0 | 0 | 0 | 0 | 0 | 0 | 0 | 0 | 0 | 0 | 0 | 0 | 0 | 0 | 0 | 0 | 0 | 0 | 0
12 | O=C1NCCSc2c1sc1ccc(O)cc21 (2.5 µM) | 0 | 0 | 0 | 0 | 0 | 1 | 0 | 0 | 0 | 0 | 0 | 0 | 0 | 0 | 1 | 0 | 0 | 0 | 2 | 1
13 | O=C(Nc1nccs1)C(c1cc(F)ccc1O)N1Cc2ccccc2C1=O (stereo not given) (10 µM) | 0 | 0 | 0 | 0 | 0 | 0 | 0 | 0 | 0 | 0 | 0 | 0 | 0 | 0 | 0 | 0 | 0 | 0 | 0 | 0
14 | COc1cccc(Nc2ncnn3ccc(CN4CC[C@@H](N)[C@H](O)C4)c23)c1 (2.5 µM) | 0 | 0 | 0 | 0 | 0 | 2 | 0 | 1 | 0 | 0 | 0 | 1 | 0 | 3 | 3 | 0 | 0 | 0 | 2 | 2
15 | C[C@@H](N)COc1ccc(-c2cnc3ccc(N[C@H](C)c4cccc(F)c4)nn23)cc1 [Taletrectinib] (2.5 µM) | 0 | 0 | 0 | 0 | 0 | 0 | 0 | 0 | 0 | 0 | 0 | 0 | 0 | 0 | 0 | 0 | 0 | 0 | 0 | 0
16 | COC[C@H]1Cn2cc(-c3nc(Nc4ccnn4C)ncc3C)nc2C(=O)N1Cc1ccc(F)c(F)c1 (10 µM) | 0 | 0 | 0 | 0 | 0 | 0 | 0 | 0 | 0 | 0 | 0 | 0 | 0 | 0 | 0 | 0 | 0 | 0 | 0 | 0
17 | CN(C)CCCNc1ccn2ncc(-c3ccc4c(c3)OCO4)c2n1 (10 µM) | 0 | 0 | 0 | 0 | 0 | 0 | 0 | 0 | 0 | 0 | 0 | 0 | 0 | 0 | 0 | 0 | 0 | 0 | 0 | 0
18 | CC(=O)Nc1nc(C)c(-c2ccc(Cl)c(S(=O)(=O)NCCO)c2)s1 (10 µM) | 0 | 0 | 0 | 0 | 0 | 0 | 0 | 0 | 0 | 0 | 0 | 1 | 0 | 0 | 4 | 0 | 0 | 1 | 1 | 0
19 | CC(C)(O)c1cc(Nc2cc(Oc3cn(C4CC4)nc3C3CCOCC3)ccn2)ccn1 (10 µM) | 0 | 0 | 0 | 0 | 0 | 0 | 0 | 0 | 0 | 0 | 0 | 0 | 0 | 0 | 0 | 0 | 0 | 0 | 0 | 0
20 | O=c1cc(-c2ccc(O)cc2)oc2cc(O)c(O)c(O)c12 [Scutellarein] (10 µM) | 0 | 0 | 0 | 0 | 0 | 0 | 0 | 0 | 0 | 0 | 0 | 0 | 0 | 0 | 0 | 0 | 0 | 0 | 0 | 0
21 | O=C(O)/C=C/c1cc(Br)c(Br)c(Br)c1Br (10 µM) | 0 | 0 | 0 | 0 | 0 | 0 | 0 | 0 | 0 | 0 | 0 | 0 | 0 | 0 | 0 | 0 | 0 | 0 | 0 | 0
22 | COc1ccc(S(=O)(=O)N(CCO)c2ccccc2CN(C)CC=Cc2ccc(Cl)cc2)cc1 (2.5 µM) | 0 | 0 | 0 | 0 | 0 | 0 | 0 | 0 | 0 | 0 | 0 | 0 | 0 | 0 | 0 | 0 | 0 | 0 | 0 | 0
23 | COc1cc(-c2cc(-c3cccc(O)c3)cnc2N)cc(OC)c1OC (2.5 µM) | 0 | 0 | 0 | 0 | 0 | 1 | 1 | 2 | 0 | 1 | 0 | 2 | 0 | 2 | 3 | 1 | 0 | 2 | 2 | 2
24 | O=c1cc(N2CCOCC2)oc2c1ccc1ccccc12 (2 µM) | 0 | 0 | 0 | 0 | 0 | 0 | 0 | 0 | 0 | 0 | 0 | 0 | 0 | 0 | 0 | 0 | 0 | 0 | 0 | 0
25 | Cc1c(Br)c(Br)c2c3c1nc(N1CCNCC1)n3CCC2 [SEL120-34A (monohydrochloride)] (2.5 µM) | 0 | 0 | 0 | 0 | 0 | 0 | 0 | 0 | 0 | 0 | 0 | 0 | 0 | 0 | 0 | 0 | 0 | 0 | 0 | 0
26 | O=C1C(=Cc2ccc(O)c(O)c2)Oc2ccccc21 (2.5 µM) | 0 | 0 | 0 | 0 | 0 | 0 | 0 | 0 | 0 | 0 | 0 | 0 | 0 | 0 | 0 | 0 | 0 | 0 | 0 | 0
27 | C=CC(=O)N[C@H]1CCOC[C@H]1Nc1ncc2cc(-c3c(Cl)c(OC)cc(OC)c3Cl)ccc2n1 [Fisogatinib] (10 µM) | 0 | 0 | 0 | 0 | 0 | 0 | 0 | 0 | 0 | 0 | 0 | 0 | 0 | 0 | 0 | 0 | 0 | 0 | 0 | 0

3 structures already listed, arranged by molar mass, low to high.
Row | Compound | number of time points [1] | number of time points [2] | number of time points [3] | number of time points [4] | number of time points [5] | number of time points [6] | number of time points [7] | number of time points [8] | number of time points [9] | number of time points [10] | number of time points [11] | number of time points [12] | number of time points [13] | number of time points [14] | number of time points [15] | number of time points [16] | number of time points [17] | number of time points [18] | number of time points [19] | number of time points [20]
5 | CCc1ccc(NC(=O)Nc2ccccc2)cc1 (10 µM) | 0 | 0 | 0 | 0 | 0 | 0 | 0 | 0 | 0 | 0 | 0 | 0 | 0 | 0 | 0 | 0 | 0 | 0 | 0 | 0
26 | O=C1C(=Cc2ccc(O)c(O)c2)Oc2ccccc21 (2.5 µM) | 0 | 0 | 0 | 0 | 0 | 0 | 0 | 0 | 0 | 0 | 0 | 0 | 0 | 0 | 0 | 0 | 0 | 0 | 0 | 0
2 | CC(C)Cn1cc(C#N)c2cc(Oc3ccc(NC(=O)[C@@H]4CCCN4)cc3)ccc21 (10 µM) | 0 | 0 | 0 | 0 | 0 | 0 | 0 | 0 | 0 | 0 | 0 | 0 | 0 | 0 | 0 | 0 | 0 | 0 | 0 | 0
